Values of other authors in patent EP1214085B1, “AN ANTIOXIDANT PREPARATION BASED ON PLANT EXTRACTS FOR THE TREATMENT OF CIRCULATION AND CHRONIC DEGENERATIVE PROBLEMS AND OF HYPERTENSION” (Ceteris Holding B.V.-Amsterdam (Olanda) - Succursale di …, priority 1999, dated 2001).
At least one compound was matched to its structure with a doubt left.

Target: cyclo-oxygenase
Details: read-out: IC50 of cyclo-oxygenase inhibition

O=c1cc(-c2ccc(O)c(-c3c(O)cc(O)c4c(=O)cc(-c5ccc(O)cc5)oc34)c2)oc2cc(O)cc(O)c12 [amentoflavone]
IC50: 3 µM
